From patent US20250206732A1, “COMPOUNDS AND METHODS FOR THE TARGETED DEGRADATION OF KRAS” (Arvinas Operations, Inc., priority 2022, published 2025)
Like-named read-outs stand apart in the source and are kept apart here. Structures were worked out from names or drawings and are uncertain.

Protein sequences, listed by entry. Tags and fused reporters are not part of them. Residues count along the entry.
UniProt P01116, 1-188 isoform 2 G12D: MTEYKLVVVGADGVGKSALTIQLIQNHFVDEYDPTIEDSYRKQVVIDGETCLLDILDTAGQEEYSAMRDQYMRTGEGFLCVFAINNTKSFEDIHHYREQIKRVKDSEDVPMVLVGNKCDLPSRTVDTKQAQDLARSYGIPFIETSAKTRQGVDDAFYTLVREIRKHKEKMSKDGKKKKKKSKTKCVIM

Target: AsPC-1 HiBiT-KRASG12D (Homo sapiens, UniProt P01116, G12D)
Experiment: HiBiT degradation assay (G12D), AsPC-1 HiBiT-KRASG12D cells
Conditions: for AsPC-1 HiBiT-KRASG12D DMax: 24 hours treatment, maximum degradation observed
[1] = read-out: AsPC-1 HiBiT-KRASG12D DC50, 24 hours treatment, HiBiT luminescence

SMILES	AsPC-1 HiBiT-KRASG12D DMax (tested form: formic acid salt)	DC50 (read-out: AsPC-1 HiBiT-KRASG12D DC50, 24 hours treatment, HiBiT luminescence, tested form: formic acid salt) [nM]	AsPC-1 HiBiT-KRASG12D DMax	DC50 [1] [nM]
CCc1cccc2cc(O)cc(-c3ncc4c(N5CC6CCC(C5)N6)nc(OC[C@@H]5CC[C@@H](COC(=O)N6CCC(Oc7cc([C@H](C(=O)N8C[C@H](O)C[C@H]8C(=O)N[C@@H](C)c8ccc(-c9scnc9C)cc8)C(C)C)on7)CC6)N5C)nc4c3F)c12	A (80% < A ≤ 100%)	< 600	–	–
CCc1cccc2cc(O)cc(-c3ncc4c(N5CC6CCC(C5)N6)nc(OCCN5CCC(CN6CCN(CC(=O)N[C@H](C(=O)N7C[C@H](O)C[C@H]7C(=O)N[C@@H](C)c7ccc(-c8scnc8C)cc7)C(C)(C)C)CC6)CC5)nc4c3F)c12	–	–	A (80% < A ≤ 100%)	< 600
C#Cc1c(F)ccc2cc(O)cc(-c3ncc4c(N5CC6CCC(C5)N6)nc(OCCN5CCC(F)(CN6CCN(c7cnc(C(=O)N[C@H](C(=O)N8C[C@H](O)C[C@H]8C(=O)N[C@@H](C)c8ccc(-c9scnc9C)cc8)C(C)(C)C)cn7)CC6)CC5)nc4c3F)c12	–	–	A (80% < A ≤ 100%)	< 600
